The data set concerns the target EpCAM (epithelial cell adhesion molecule) (UniProt P16422). Put plainly: binding assay. To be noted: phosphorothioate backbone and 3'-NH2 as used here; cited Kd may refer to the unmodified DNA; single-stranded DNA.

Protein sequences, listed by entry. Tags and fused reporters are not part of them. Residues count along the entry.
UniProt P16422, 24-265: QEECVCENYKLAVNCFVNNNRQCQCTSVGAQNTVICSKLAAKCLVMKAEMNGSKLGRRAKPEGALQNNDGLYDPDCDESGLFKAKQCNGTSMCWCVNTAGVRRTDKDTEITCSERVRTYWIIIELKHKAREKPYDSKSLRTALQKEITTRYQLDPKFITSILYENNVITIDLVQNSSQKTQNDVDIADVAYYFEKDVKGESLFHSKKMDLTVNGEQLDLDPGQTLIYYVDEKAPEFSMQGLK

Construct, isoform or probe ends are uncertain for at least one entry.

One may read the Kd as the concentration at which binding is half-saturated. In the case of “ATCCAGAGTGACGCAGCATGCGGCACACACTTCTATCTTTGCGGAACTCCTGCGGCTCTGGACACGGTGGCTTAGT [EpCAM aptamer (Apt)]”, the equilibrium dissociation constant (Kd) worked out at 12 nM.

The record behind these values is publication PMC11334571, “EpCAM-targeted betulinic acid analogue nanotherapy improves therapeutic efficacy and induces anti-tumorigenic immune response in colorectal cancer tumor microenvironment” (Journal of Biomedical Science, 2024).
